Test results reported in US6410245B1, “Compositions and methods for detecting ligand-dependent nuclear receptor and coactivator interactions” (priority 1998, dated 2002).
Results are given in words; binding and its absence hold for the method and conditions named. Some results given as binding are weak or reduced against the parent protein; the word gives no strength.

By UniProt entry, the sequences of proteins in these tests, tags left out. Residues count along the entry.
UniProt Q92731, residues 248-530: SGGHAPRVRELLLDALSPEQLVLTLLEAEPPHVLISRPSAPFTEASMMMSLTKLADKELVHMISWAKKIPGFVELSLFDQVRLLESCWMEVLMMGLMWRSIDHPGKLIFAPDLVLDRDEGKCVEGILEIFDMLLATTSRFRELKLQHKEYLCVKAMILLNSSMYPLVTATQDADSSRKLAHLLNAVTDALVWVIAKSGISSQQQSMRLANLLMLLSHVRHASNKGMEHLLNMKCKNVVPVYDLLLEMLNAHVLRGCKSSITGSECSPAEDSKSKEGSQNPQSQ

Target: GST-ERβ (human) (UniProt Q92731)
Experiment: fourth round selectants of ERβ panning as MBP fusions, ELISA on ERβ with and without estradiol

binding	Binder
binds	QMGGPLLWAYLIGPL (peptide, not shown: large carriers) [SEQ ID NO 39]
binds	DTRMTILLRLLTNQS (peptide, not shown: large carriers) [SEQ ID NO 28]
binds	KDSRAHLLRDVLVMKSE (peptide, not shown: large carriers) [SEQ ID NO 24]
binds	LRGRQPMLRGLLCRSEVRR (peptide, not shown: large carriers) [SEQ ID NO 26]
binds	GSKHGVLLRHLLRRVEESR (peptide, not shown: large carriers) [SEQ ID NO 25]
binds	ESCHRSLLHSLLLT (peptide, not shown: large carriers) [SEQ ID NO 27]
binds	LCSTRPLLYRLLLSKGCNW (peptide, not shown: large carriers) [SEQ ID NO 23]
binds	NLLMRYLMAKSDGVS (peptide, not shown: large carriers) [SEQ ID NO 33]
binds	WGSSLLVTYLTQREM (peptide, not shown: large carriers) [SEQ ID NO 38]
binds	GTGGSMLLWYLSKDH (peptide, not shown: large carriers) [SEQ ID NO 40]
binds	ECSSWLLHYLRSRDS (peptide, not shown: large carriers) [SEQ ID NO 30]
binds	ESVLLRLLRMDATRV (peptide, not shown: large carriers) [SEQ ID NO 37]
binds	GSLLESLLRSRDG (peptide, not shown: large carriers) [SEQ ID NO 35]
binds	ERLPGRLLWRMLMER (peptide, not shown: large carriers) [SEQ ID NO 36]
binds	GPQTSLLWKMLAER (peptide, not shown: large carriers) [SEQ ID NO 29]
binds	SILLNLLTRKDHQWRN (peptide, not shown: large carriers) [SEQ ID NO 31]
binds	LLLKLLQRNP (peptide, not shown: large carriers) [SEQ ID NO 32]
binds	GRGLLLELLTRGDNA (peptide, not shown: large carriers) [SEQ ID NO 34]
